This assay addresses GST-FKBP12 (rat) (UniProt Q62658). In words: pull-down.

Chains of the proteins cited; added tags and fusions are not shown.
UniProt Q62658, whole entry: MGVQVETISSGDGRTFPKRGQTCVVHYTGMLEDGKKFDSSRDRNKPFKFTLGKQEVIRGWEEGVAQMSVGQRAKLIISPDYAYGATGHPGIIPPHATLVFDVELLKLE
UniProt B0LPN4, whole entry: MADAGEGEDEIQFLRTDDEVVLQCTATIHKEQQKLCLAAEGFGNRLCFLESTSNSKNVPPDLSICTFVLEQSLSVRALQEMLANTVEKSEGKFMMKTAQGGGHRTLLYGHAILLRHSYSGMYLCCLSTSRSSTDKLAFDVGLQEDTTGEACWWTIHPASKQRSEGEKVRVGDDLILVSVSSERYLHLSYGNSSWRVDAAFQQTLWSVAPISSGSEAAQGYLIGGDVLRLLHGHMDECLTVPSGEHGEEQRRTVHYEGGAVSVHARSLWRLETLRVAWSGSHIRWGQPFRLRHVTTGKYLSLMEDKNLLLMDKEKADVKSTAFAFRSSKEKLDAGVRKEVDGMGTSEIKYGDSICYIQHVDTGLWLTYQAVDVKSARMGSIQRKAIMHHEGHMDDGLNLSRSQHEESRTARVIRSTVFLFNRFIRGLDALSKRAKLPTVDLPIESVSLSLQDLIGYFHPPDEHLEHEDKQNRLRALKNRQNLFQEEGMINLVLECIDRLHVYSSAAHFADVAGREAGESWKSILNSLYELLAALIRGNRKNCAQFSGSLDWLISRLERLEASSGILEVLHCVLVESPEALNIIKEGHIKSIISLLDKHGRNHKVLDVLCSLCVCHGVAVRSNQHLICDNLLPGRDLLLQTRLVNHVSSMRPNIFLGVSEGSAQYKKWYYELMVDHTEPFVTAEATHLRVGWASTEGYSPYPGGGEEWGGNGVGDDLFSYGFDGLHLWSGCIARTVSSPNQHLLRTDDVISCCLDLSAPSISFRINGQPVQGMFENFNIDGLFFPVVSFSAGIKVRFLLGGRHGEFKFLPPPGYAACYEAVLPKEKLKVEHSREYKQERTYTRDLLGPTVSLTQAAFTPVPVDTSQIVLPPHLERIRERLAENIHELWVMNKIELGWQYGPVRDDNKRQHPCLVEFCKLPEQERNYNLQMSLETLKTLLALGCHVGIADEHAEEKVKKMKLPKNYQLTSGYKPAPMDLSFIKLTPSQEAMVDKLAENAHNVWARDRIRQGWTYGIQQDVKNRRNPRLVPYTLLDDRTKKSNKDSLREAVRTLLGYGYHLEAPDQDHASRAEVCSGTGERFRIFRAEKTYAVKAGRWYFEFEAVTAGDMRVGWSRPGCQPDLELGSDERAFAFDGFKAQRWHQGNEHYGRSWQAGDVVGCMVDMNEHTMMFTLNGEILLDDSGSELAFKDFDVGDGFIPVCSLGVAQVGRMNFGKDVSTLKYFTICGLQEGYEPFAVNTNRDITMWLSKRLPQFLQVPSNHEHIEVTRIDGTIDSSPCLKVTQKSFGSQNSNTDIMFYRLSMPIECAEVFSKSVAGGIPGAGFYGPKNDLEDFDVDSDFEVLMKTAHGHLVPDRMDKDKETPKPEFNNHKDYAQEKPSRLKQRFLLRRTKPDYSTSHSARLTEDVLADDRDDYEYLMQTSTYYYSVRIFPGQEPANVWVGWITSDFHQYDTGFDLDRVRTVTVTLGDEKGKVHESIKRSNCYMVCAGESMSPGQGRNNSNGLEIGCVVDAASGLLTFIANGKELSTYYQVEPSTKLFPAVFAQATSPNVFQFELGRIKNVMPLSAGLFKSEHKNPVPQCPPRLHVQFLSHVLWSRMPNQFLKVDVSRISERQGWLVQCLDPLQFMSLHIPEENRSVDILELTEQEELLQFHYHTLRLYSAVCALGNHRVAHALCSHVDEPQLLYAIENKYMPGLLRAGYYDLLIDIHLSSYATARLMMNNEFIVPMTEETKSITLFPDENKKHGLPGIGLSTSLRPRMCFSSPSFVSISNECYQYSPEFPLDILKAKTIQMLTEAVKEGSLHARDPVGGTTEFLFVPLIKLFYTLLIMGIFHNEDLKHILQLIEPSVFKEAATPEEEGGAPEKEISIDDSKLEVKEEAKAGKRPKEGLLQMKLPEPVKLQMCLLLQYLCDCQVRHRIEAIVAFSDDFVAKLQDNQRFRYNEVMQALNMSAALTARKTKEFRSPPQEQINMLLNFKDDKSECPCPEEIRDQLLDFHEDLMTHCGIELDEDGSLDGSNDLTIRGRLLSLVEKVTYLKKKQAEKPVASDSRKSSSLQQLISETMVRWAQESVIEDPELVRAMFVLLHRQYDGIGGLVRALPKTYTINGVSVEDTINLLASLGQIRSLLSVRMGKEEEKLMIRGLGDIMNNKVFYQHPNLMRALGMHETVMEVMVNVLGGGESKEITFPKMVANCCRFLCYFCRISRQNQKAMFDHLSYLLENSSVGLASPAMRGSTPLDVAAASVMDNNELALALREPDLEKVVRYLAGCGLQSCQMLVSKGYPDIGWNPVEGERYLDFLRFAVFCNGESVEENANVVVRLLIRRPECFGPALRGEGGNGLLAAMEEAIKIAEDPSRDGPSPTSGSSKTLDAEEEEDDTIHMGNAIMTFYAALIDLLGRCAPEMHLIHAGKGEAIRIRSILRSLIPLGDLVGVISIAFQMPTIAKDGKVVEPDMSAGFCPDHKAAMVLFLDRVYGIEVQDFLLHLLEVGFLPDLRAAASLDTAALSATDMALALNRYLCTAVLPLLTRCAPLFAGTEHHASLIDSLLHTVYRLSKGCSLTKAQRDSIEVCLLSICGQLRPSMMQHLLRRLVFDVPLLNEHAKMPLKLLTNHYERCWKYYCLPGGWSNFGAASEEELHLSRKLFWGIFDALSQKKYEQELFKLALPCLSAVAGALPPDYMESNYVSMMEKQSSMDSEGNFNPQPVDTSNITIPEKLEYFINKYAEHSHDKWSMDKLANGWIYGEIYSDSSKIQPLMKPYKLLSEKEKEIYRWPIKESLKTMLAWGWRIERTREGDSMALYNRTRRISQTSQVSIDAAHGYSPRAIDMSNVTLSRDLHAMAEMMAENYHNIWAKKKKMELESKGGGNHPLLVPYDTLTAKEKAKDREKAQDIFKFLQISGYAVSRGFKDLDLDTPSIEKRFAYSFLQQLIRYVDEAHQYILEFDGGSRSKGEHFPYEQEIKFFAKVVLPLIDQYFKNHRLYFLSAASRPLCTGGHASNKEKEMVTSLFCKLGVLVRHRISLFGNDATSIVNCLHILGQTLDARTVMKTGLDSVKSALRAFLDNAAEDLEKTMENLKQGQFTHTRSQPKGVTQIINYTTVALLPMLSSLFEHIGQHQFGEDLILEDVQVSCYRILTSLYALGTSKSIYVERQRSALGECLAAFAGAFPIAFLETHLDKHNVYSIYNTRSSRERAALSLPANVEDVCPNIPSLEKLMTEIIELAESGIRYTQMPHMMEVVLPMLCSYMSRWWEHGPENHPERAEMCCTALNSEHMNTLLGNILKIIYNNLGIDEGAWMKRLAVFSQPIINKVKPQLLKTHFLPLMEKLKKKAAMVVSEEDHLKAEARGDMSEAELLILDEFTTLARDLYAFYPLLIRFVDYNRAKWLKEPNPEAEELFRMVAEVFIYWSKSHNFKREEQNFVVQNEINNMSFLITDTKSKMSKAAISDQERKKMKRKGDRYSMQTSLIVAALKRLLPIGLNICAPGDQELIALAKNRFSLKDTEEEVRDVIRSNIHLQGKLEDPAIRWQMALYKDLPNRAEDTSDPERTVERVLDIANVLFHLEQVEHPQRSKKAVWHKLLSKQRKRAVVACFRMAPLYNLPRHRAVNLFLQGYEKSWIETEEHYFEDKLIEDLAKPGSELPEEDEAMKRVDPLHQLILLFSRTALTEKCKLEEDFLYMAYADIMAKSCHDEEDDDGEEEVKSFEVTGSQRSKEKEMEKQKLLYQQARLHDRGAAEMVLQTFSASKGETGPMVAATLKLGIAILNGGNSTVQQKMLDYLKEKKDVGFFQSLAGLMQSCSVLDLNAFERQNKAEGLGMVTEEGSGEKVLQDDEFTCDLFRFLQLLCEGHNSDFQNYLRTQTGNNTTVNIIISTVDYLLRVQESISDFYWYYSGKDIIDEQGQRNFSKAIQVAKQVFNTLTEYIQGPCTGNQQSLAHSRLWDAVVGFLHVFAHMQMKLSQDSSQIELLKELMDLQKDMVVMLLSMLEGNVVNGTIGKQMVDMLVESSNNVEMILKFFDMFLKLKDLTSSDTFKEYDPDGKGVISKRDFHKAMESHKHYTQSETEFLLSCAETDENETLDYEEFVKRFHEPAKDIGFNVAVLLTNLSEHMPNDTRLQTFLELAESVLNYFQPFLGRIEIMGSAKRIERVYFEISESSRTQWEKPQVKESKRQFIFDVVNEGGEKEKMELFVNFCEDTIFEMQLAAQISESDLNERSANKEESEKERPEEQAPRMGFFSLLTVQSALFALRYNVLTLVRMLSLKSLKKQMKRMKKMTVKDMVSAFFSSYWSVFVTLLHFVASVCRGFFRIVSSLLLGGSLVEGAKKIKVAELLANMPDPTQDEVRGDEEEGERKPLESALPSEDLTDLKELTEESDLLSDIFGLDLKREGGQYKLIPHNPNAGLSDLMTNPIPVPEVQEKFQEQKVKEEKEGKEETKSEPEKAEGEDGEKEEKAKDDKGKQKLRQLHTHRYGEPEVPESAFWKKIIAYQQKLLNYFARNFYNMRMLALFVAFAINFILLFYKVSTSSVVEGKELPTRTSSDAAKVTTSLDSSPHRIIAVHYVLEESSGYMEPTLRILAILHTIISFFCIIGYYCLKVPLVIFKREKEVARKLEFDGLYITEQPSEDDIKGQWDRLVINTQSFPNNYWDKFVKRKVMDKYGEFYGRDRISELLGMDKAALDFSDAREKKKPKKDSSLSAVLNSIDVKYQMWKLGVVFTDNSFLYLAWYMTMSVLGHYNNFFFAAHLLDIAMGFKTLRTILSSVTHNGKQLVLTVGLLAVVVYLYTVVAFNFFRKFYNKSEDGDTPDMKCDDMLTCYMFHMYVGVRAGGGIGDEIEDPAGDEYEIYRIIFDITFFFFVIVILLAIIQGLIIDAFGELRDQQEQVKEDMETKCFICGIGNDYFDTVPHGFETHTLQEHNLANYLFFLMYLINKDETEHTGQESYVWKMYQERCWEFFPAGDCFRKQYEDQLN

For one substance, binding results are on record in article doi:10.1101/435875.

Results are given in words; binding and its absence hold for the method and conditions named. Binding seen in cells or lysates may run through a third protein. Some results given as binding are weak or reduced against the parent protein; the word gives no strength.

Consider RyR2 (from UniProt B0LPN4 1-4955), for which the binding result is given as “binds”.
